# From paper PMC6981129
# Protein sequences, listed by entry. Tags and fused reporters are not part of them. Lines headed by an entry give the natural chain unless they say otherwise; changes in a name come on top.
# UniProt A3BE68: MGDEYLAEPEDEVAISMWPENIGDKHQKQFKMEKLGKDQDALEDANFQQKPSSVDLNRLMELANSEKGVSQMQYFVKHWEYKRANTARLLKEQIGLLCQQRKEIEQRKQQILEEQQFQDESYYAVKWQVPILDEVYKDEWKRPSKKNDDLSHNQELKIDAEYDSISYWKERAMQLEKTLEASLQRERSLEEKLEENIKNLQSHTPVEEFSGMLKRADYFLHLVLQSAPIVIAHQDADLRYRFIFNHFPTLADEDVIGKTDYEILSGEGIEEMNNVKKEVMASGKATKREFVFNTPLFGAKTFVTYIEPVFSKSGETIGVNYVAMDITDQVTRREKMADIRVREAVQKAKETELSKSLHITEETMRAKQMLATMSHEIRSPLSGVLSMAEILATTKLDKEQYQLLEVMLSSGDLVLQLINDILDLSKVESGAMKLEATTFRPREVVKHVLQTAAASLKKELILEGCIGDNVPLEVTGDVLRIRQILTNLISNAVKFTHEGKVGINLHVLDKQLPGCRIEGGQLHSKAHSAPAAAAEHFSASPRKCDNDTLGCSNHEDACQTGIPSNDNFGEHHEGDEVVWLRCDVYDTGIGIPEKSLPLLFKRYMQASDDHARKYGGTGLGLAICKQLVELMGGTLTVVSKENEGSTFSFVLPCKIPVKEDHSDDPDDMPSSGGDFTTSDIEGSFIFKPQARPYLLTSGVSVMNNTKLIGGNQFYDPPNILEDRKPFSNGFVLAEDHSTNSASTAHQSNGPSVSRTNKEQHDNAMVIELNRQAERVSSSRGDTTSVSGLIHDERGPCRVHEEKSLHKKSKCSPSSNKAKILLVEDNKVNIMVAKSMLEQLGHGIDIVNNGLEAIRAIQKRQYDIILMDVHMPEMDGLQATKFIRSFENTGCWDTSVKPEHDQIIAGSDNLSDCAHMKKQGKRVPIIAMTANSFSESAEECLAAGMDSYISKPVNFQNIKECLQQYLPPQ
# Numbering of substitutions follows the chain as printed. These are yes or no findings as the source states them, for the method shown. A result given as binding can be weak or reduced; the word gives no strength. For part of these data: Binding seen in cells or lysates may run through a third protein. For part of these data: Where a sequence is shown, tags or fusion partners need not be part of it.
# Assays:
# [1] = biological target: T1, ERS2GAF-GFP (rice (Oryza sativa L.)) (UniProt Q0DKM0); assay: co-IP; MHZ1-FLAG and GFP-tagged receptor versions cotransformed into rice protoplasts; IP buffer 50 mM HEPES pH 7.5, 150 mM NaCl, 0.5 mM EDTA, 0.5% NP-40; immunoprecipitated with GFP-Trap beads 2 h at 4 °C; immunoblot with anti-GFP and anti-FLAG
# T1 sequence: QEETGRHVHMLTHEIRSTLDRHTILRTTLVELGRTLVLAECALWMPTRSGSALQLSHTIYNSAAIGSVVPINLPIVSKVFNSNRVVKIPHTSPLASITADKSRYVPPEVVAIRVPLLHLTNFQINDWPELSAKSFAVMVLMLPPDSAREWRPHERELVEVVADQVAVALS
# [2] = biological target: T2, OsERS2-Cub (ethylene receptor OsERS2) (rice (Oryza sativa L.)) (UniProt Q0DKM0); assay: two-hybrid; split-ubiquitin membrane-based yeast two-hybrid (DUAL membrane starter kit SUC); bait OsERS2-Cub in pBT3-STE, prey NubG-MHZ1 in pPR3-N, yeast strain NMY51; interaction read as growth on SD-Trp-Leu-His-Ade
# T2 sequence: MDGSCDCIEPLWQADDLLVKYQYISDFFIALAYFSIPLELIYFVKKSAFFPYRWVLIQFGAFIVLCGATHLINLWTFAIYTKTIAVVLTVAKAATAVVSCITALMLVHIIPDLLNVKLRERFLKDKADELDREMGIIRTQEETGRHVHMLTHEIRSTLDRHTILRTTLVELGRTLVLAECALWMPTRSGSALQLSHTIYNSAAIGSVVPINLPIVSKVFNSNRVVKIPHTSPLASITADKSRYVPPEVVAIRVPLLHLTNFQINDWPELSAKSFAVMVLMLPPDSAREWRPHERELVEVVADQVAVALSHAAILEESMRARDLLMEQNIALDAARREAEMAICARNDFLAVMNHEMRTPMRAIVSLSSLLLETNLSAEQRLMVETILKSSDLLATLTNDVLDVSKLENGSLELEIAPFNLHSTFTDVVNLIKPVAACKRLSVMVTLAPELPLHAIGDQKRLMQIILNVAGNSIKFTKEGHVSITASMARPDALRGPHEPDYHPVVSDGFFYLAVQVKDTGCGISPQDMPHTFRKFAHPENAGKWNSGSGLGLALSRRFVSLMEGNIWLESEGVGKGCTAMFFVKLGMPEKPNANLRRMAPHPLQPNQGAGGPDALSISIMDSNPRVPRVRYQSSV
# [3] = biological target: T3, Osers2^d (OsERS2 with the dominant gain-of-function mutation A32V) (rice (Oryza sativa L.)) (UniProt Q0DKM0); assay: as above
# T3 sequence: T2 sequence with A32V
binding [1],binding [2],binding [3],Substance
binds,–,–,MHZ1-FLAG (from UniProt A3BE68) (enzyme)
–,binds,binds,NubG-MHZ1 (histidine kinase MHZ1/OsHK1) (from UniProt A3BE68) (enzyme)
